Assay results from the supplement of paper PMC3334620.
Whole data set: some 33,000 sequences, median “E-score (-0.5 to 0.5)” near -0.0034, cut for the highest 2% near 0.25. The list shows a part of the results.

Target: T1, Yap3 (UniProt P38749)
T1 sequence: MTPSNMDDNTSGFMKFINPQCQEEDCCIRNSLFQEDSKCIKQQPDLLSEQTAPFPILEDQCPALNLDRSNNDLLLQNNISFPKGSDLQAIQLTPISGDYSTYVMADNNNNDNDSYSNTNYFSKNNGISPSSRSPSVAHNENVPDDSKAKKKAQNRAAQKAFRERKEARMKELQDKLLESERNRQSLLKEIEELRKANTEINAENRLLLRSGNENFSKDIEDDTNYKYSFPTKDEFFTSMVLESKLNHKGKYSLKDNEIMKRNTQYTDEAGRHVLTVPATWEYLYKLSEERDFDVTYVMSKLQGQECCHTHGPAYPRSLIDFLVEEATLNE
Experiment: PBM E-score (8-mer binding enrichment) (E-score (-0.5 to 0.5)); higher = stronger / more preferred TF binding
Settings: protein concentration: 100 nM; construct: GST-full length
Protocol: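 Universal 'all 10-mer' protein binding microarrays (Agilent AMADID 015681) probed with GST-tagged S. cerevisiae TFs (full-length or DBD) made by in vitro transcription/translation (PURExpress), about 100-200 nM. Bound TF was detected with fluorescent anti-GST. Each ungapped 8-mer (which stands for itself and its reverse complement) is scored by the PBM enrichment score (E-score), a modified Wilcoxon-Mann-Whitney statistic from -0.5 to +0.5, computed with the Universal PBM Analysis Suite. Scale: above 0.35 generally sequence-specific binding.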

Going from ACACATAG to GACTCGTA, the “PBM E-score” value falls from -0.0796 to -0.126.

First: ACAGTTAG
Second: AGAGTGTG
The “PBM E-score” value of the first is higher: 0.112 for the first, 0.0481 for the second.

First: CAAAGCGG
Second: AGCGTCAT
The “PBM E-score” value of the first is lower: -0.00846 for the first, 0.00495 for the second.

Going from CTTTACGC to CAATCCAG, the “PBM E-score” value rises from 0.105 to 0.16.

First: CACTATGG
Second: CAAATCTG
The “PBM E-score” value of the first is lower: -0.0816 for the first, -0.00824 for the second.

Going from ACATAAGT to GATTAAGC, the “PBM E-score” value rises from 0.159 to 0.166.

Going from AAACTTCA to CTCCCCGA, the “PBM E-score” value falls from 0.0931 to -0.183.

Going from ACGCGACG to CACTACAA, the “PBM E-score” value rises from 0.172 to 0.184.

Going from ACGGCGAT to AAAGTTCT, the “PBM E-score” value rises from 0.0211 to 0.0391.

First: AATTTAGC
Second: GAAACTGA
The “PBM E-score” value of the first is higher: 0.0858 for the first, -0.116 for the second.

Compared with CCGACCTA, AAAGACCG is lower in “PBM E-score” value: 0.0425 for the first, -0.0827 for the second.

Compared with CGCCTTGA, TCGGTCAA is higher in “PBM E-score” value: -0.19 for the first, 0.0943 for the second.

First: CGTCGCTA
Second: GCACTCCC
The “PBM E-score” value of the first is higher: 0.11 for the first, -0.0915 for the second.

Compared with ATCGAGAT, GAAGAAAA is higher in “PBM E-score” value: 0.0259 for the first, 0.0429 for the second.

First: ATCGGTTA
Second: GCCACCGC
The “PBM E-score” value of the first is higher: 0.165 for the first, -0.163 for the second.

First: CCCTGGCC
Second: CTTTATTC
The “PBM E-score” value of the first is lower: -0.333 for the first, 0.107 for the second.

Going from GTTTATAA to CGAGTCTC, the “PBM E-score” value falls from 0.224 to -0.136.

First: CGACCTAA
Second: ATAACTAC
The “PBM E-score” value of the first is lower: 0.101 for the first, 0.177 for the second.

First: AGAAGAGG
Second: CACCCCTC
The “PBM E-score” value of the first is higher: -0.252 for the first, -0.256 for the second.

Going from CAAGATTG to CCTGCAGG, the “PBM E-score” value falls from 0.0575 to -0.062.

Going from CATAGTCA to ACCCGTGC, the “PBM E-score” value falls from 0.0745 to -0.177.

Going from ATGCCTGG to CCCATACA, the “PBM E-score” value rises from -0.143 to -0.115.

Compared with ACCTAAAC, ACAGCGGG is lower in “PBM E-score” value: 0.122 for the first, 0.0111 for the second.

Going from ATTGCAGC to GCTACGTA, the “PBM E-score” value rises from -0.0301 to 0.0655.

Compared with ACTTGCAT, AGATCGCC is lower in “PBM E-score” value: 0.117 for the first, -0.0232 for the second.

Going from CATAGGAC to CAGAACGA, the “PBM E-score” value rises from -0.142 to 0.201.

Going from GTTCTACA to CGGCTGCA, the “PBM E-score” value falls from -0.11 to -0.303.

Going from ATCCTAGC to AGAAACCA, the “PBM E-score” value rises from 0.119 to 0.195.

First: GGGGAAAA
Second: ATGGATAC
The “PBM E-score” value of the first is higher: 0.0988 for the first, 0.0687 for the second.

First: AAACAAAG
Second: GTCGCCAC
The “PBM E-score” value of the first is higher: 0.185 for the first, -0.132 for the second.

Going from AAGTAAAC to GTACCGAC, the “PBM E-score” value falls from 0.0216 to -0.125.

Compared with AGAACTCT, CGATAGTC is higher in “PBM E-score” value: -0.145 for the first, 0.0363 for the second.

First: CGTGGCAA
Second: TCATTTAA
The “PBM E-score” value of the first is lower: -0.138 for the first, 0.158 for the second.

First: CCACACCA
Second: AGGCACCG
The “PBM E-score” value of the first is higher: 0.154 for the first, -0.276 for the second.

First: GAGAGGCA
Second: TCTGGTAA
The “PBM E-score” value of the first is lower: -0.103 for the first, 0.138 for the second.

Going from CTGTTTAA to ATACCGGC, the “PBM E-score” value falls from 0.0842 to -0.0328.

First: CACATCTG
Second: CCTTCGTA
The “PBM E-score” value of the first is lower: -0.146 for the first, -0.0891 for the second.

First: CTTTCGGC
Second: TAAGCTAA
The “PBM E-score” value of the first is lower: -0.183 for the first, 0.11 for the second.

Going from AGTACGGG to AATCGCAA, the “PBM E-score” value rises from -0.0367 to 0.152.

First: GGATTGGA
Second: CGACTTAC
The “PBM E-score” value of the first is higher: 0.19 for the first, -0.0169 for the second.

Going from AAGGGCAG to ACAGTAAA, the “PBM E-score” value rises from -0.0487 to 0.169.

First: GGCAATTA
Second: GAGTGACC
The “PBM E-score” value of the first is higher: 0.0084 for the first, -0.154 for the second.

Compared with CCGTTGAA, CAGAATCC is higher in “PBM E-score” value: -0.115 for the first, -0.0575 for the second.
